# In PubChem BioAssay AID504444 (National Center for Advancing Translational Sciences (NCATS), 2011):
# Screen size: about 360,000 compounds; about 7,500 (2.1%) were called active. Inconclusive results, whose numbers are uncertain, are shown with a selection of clear calls. Calls follow the shape of the dose curve; as a rule, active = well fitted inhibition curve with a large enough effect; inconclusive = small, poorly fitted or top-dose-only effect, or effect the other way; inactive = flat fitted curve, though single readings scatter. Where the call is inconclusive, the potency comes from a doubtful curve fit.
# Assay: Nrf2 qHTS screen for inhibitors; also: nearly all actives have a fitted effect of over 60% in size
# Details: A549 ARE-Fluc reporter, luciferase luminescence, 18-24 h; series mostly up to 46 µM
# Method in brief: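 In this cell-based qHTS, ARE-driven firefly luciferase in A549 cells reports Nrf2 activity; the luminescent signal after BugLite lysis is the measured value, with a prior CellTiter-Fluor read for cell health.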
# Potency is read from the fitted curve at half-maximal effect.
row,Compound,Potency
1,O=C(c1c(O)c2ccccc2oc1=O)C1CCC1,"inconclusive: 29.1 µM [falling, single point]"
2,CC(C)c1cc(C(=O)N2CCCC(CCC(=O)NCc3ccccc3F)C2)n(C)n1 (stereo unspecified),"inconclusive: 23.1 µM [falling, single point]"
3,O=C(COC(=O)CCC1CCCC1)Nc1ccc(Cl)cn1,"inconclusive: 0.164 µM [falling, full curve, poor fit]"
4,Cc1ccc(S(=O)(=O)c2nnn3c2nc(NC2CCCCC2)c2sccc23)cc1,inactive
5,O=C(O)c1cccc(N/N=C/c2cn(-c3ccccc3)nc2-c2cccs2)c1,"inconclusive: 2.59 µM [activator, full curve]"
6,CCC(=O)c1ccc(N2CCN(C(=O)COc3ccccc3F)CC2)c(F)c1,"inconclusive: 29.1 µM [falling, single point]"
7,COc1ccc(C2CC(c3c(-c4ccccc4)c4cc(Cl)ccc4[nH]c3=O)=NN2S(C)(=O)=O)cc1 (stereo unspecified),"inconclusive: 29.1 µM [falling, single point]"
8,COc1cccc(C=CC(=O)C=CC=Cc2ccccc2)c1,inactive
9,CC1(S(=O)(=O)O)CC(=O)c2ccccc2C1=O (stereo unspecified),"inconclusive: 14.6 µM [falling, partial curve, poor fit]"
10,Cc1ccc(Cc2cn3cc(-c4ccccc4)nc3s2)cc1,"inconclusive: 1.16 µM [activator, partial curve]"
11,Cc1ccc(C(=O)C(c2ccccc2)N2Cc3ccccc3C2=N)cc1 (stereo unspecified),"inconclusive: 18.4 µM [falling, partial curve]"
12,Cn1nnnc1Sc1ncnc2scc(-c3cccc(S(C)(=O)=O)c3)c12,active: 8.2 µM
13,Cc1nnc(NC(=O)c2ccc3c(c2)C(=O)N(CCC(C)C)C3=O)s1,"inconclusive: 7.31 µM [falling, single point]"
14,Cc1cc(C)c(OCCCCNCc2ccccc2)c(Cl)c1,inactive
15,Cc1ccc(Cn2c(=O)n(Cc3ccco3)c(=O)c3oc4ccccc4c32)cc1,"inconclusive: 29.1 µM [activator, single point]"
16,Cc1cc(/C(N)=N/OC(=O)c2cccc(Cl)c2)no1,"inconclusive: 7.31 µM [activator, partial curve, poor fit]"
17,O=C(C1CCN(S(=O)(=O)c2cccc3nsnc23)CC1)N1CCCc2ccccc21,"inconclusive: 6.51 µM [falling, partial curve, poor fit]"
18,CCOc1cc(CNc2ccc(OC)cc2)cc(Br)c1OCC(=O)NC(C)(C)C,"inconclusive: 18.4 µM [falling, single point]"
19,Clc1ccc(-c2ccc(CN3CCCCC3)o2)cc1,"inconclusive: 32.6 µM [activator, partial curve, poor fit]"
20,Cc1ccc2cc(CN(Cc3ccco3)C(=O)NCc3ccccc3)c(=O)[nH]c2c1C,"inconclusive: 20.6 µM [falling, partial curve]"
21,COc1ccc(C(=O)Nc2cnc(NC(=O)c3cccs3)cc2C)cc1,"inconclusive: 4.61 µM [activator, full curve, poor fit]"
22,CCOc1ccc(Cl)cc1S(=O)(=O)N1CCC(C(=O)N2CCCC2)CC1,"inconclusive: 29.1 µM [falling, single point]"

row,Compound,Potency
1,Cn1nc(-c2ccc(Cl)cc2)c2cc(C(=O)NCCCN3CCOCC3)sc21,"inconclusive: 25.9 µM [falling, single point]"
2,Cn1cc(CNCc2cn(C)nc2-c2ccc(C3CCCCC3)cc2)cn1,"inconclusive: 25.9 µM [activator, partial curve, poor fit]"
3,COc1ccc(S(=O)(=O)Nc2ccc(O)c(Sc3ncn[nH]3)c2)cc1,inactive
4,O=C(Oc1cccc(Nc2ncnc3ccccc23)c1)c1ccccc1Cl,"inconclusive: 29.1 µM [falling, single point]"
5,N/C(=N\OC(=O)c1ccc2c(c1)OCO2)c1cccnc1,"inconclusive: 14.6 µM [activator, partial curve]"
6,O=S(=O)(c1ccc(Br)cc1)N1CCN(c2nc(-c3ccccc3)nc3ccccc23)CC1,inactive
7,COc1ccc(CNC(=O)CSc2nnc(NC(=O)C3CC3)s2)cc1,"inconclusive: 18.4 µM [falling, single point]"
8,COc1ccc(C(=O)NCC(=O)OCC(=O)N2N=C(c3ccc(Cl)cc3)CC2c2ccco2)cc1OC (stereo unspecified),"inconclusive: 20.6 µM [falling, single point]"
9,Cc1ccnc(NC(=O)c2ccc3c(c2)OCO3)c1,"inconclusive: 1.64 µM [activator, full curve, poor fit]"
10,Cc1ccc2[nH]cc(/C=C/c3cc[n+](C)cc3)c2c1,active: 1.84 µM
11,Cc1cc(C)c(S(=O)(=O)NCc2nc3nc(C)cc(C)n3n2)c(C)c1,inactive
12,O=C(Nc1ccc2c(c1)OCCO2)c1ccoc1,"inconclusive: 14.6 µM [activator, partial curve, poor fit]"
13,CCCOc1cccc(C2c3c(-c4ccccc4O)n[nH]c3C(=O)N2Cc2ccco2)c1 (stereo unspecified),"inconclusive: 29.1 µM [falling, single point]"
14,CS(=O)(=O)Nc1cccc(-c2cnc3ccccc3n2)c1,"inconclusive: 16.4 µM [activator, partial curve]"
15,COc1cccc(/C=N/n2c(COc3ccccc3)n[nH]c2=S)c1,"inconclusive: 25.9 µM [falling, partial curve, poor fit]"
16,Cc1ccc(C(=O)N/C(=C\c2ccc(Br)cc2)c2nc(=S)[nH][nH]2)cc1,"inconclusive: 29.1 µM [falling, single point]"
17,O=C(NCCCn1ccnc1)c1ccc(Br)s1,inactive
18,COc1ccc(C2=NS(=O)(=O)N(C)C(C(=O)N(C)Cc3ccccc3)=C2)cc1OC,"inconclusive: 16.4 µM [falling, single point]"
19,Cc1cc(=O)n2[nH]c(C)c(-c3ccc(Cl)cc3)c2n1,"inconclusive: 20.6 µM [falling, partial curve, poor fit]"
20,Cc1ccc(S(=O)(=O)N2CCCCC2)cc1C(=O)N(C)CC(=O)Nc1ccc(Cl)c(C(F)(F)F)c1,"inconclusive: 25.9 µM [falling, single point]"
21,COc1ccc(C(=O)C2CCN(C(=O)c3ccc(C)cc3)CC2)cc1,"inconclusive: 18.4 µM [falling, single point]"
22,Cc1cc(N2CCOCC2)ccc1/C=C1/SC(=O)NC1=O,"inconclusive: 20.6 µM [activator, partial curve]"

# A different layout for 3 compounds above.
row	Compound	Potency
2	CC(C)c1cc(C(=O)N2CCCC(CCC(=O)NCc3ccccc3F)C2)n(C)n1 (stereo unspecified)	inconclusive: 23.1 µM [falling, single point]
7	COc1ccc(CNC(=O)CSc2nnc(NC(=O)C3CC3)s2)cc1	inconclusive: 18.4 µM [falling, single point]
10	Cc1ccc2[nH]cc(/C=C/c3cc[n+](C)cc3)c2c1	active: 1.84 µM

# Further results

row,Compound,Potency
1,Cc1ccc(C(=O)Nc2ccc(Cl)cn2)cc1S(=O)(=O)N1CCOCC1,inactive
2,O=C(Nc1ccccc1C(=O)N1CCN(c2cccc(Cl)c2)CC1)C1=CSCCO1,"inconclusive: 29.1 µM [falling, single point]"
3,Cc1ccccc1OCc1nc2ccccc2n1Cc1ccccc1Cl,"inconclusive: 23.1 µM [falling, partial curve, poor fit]"
4,COc1cc(/C=N/Nc2nn3cnnc3c3ccccc23)ccc1O,"inconclusive: 29.1 µM [falling, single point]"
5,CCOC(=O)N1CCC(NC(=O)C(CC(C)C)NC(=O)C2CCCCC2)CC1 (stereo unspecified),"inconclusive: 13 µM [falling, single point]"
6,CC(=O)Oc1ccc(OC(C)=O)c(SCCCCCN2CCOCC2)c1,inactive
7,COc1cc(C(=O)OCC(=O)Nc2ccc(OC(F)F)cc2)cc(OC)c1OC,"inconclusive: 29.1 µM [falling, single point]"
8,CCn1c(C(=O)NCc2ccccc2Br)cc2oc3ccccc3c21,"inconclusive: 5.8 µM [falling, single point]"
9,O=C(NNC(=O)C1CCN(Cc2cccc(F)c2)CC1)c1cccs1,"inconclusive: 2.91 µM [activator, full curve]"
10,COc1ccc(-c2cc(C(=O)OCC(=O)N(C)C)c3ccccc3n2)cc1,inactive
11,CCCCN(CCCNC(=O)Cn1nc(CC)n2c(cc3sc(C)cc32)c1=O)Cc1ccccc1,"inconclusive: 29.1 µM [falling, partial curve, poor fit]"
12,Cc1ccc(C)c(N2CCN(C(=O)CCCCn3c(=O)[nH]c4ccccc4c3=O)CC2)c1,"inconclusive: 20.6 µM [falling, single point]"
13,Cc1sc2ncnc(NCc3ccccc3)c2c1C,"inconclusive: 0.0164 µM [activator, full curve]"
14,COc1ccsc1NC(=O)OCc1ccc(Cl)cc1,inactive
15,CN(C)S(=O)(=O)c1cc(NC(=O)C2=COCCO2)ccc1Cl,"inconclusive: 32.6 µM [activator, partial curve, poor fit]"
16,O=C(CNC(=O)Cn1cnc2sc3c(c2c1=O)CCCC3)NCc1ccccn1,"inconclusive: 0.231 µM [falling, full curve, poor fit]"
17,Cc1cccc(N2CCN(C(c3ccncc3)c3nnnn3C(C)(C)C)CC2)c1C (stereo unspecified),"inconclusive: 7.31 µM [falling, partial curve]"
18,COc1cc2[nH]c(C(=O)NCc3ccccc3)cc2c(OC)c1OC,"inconclusive: 25.9 µM [falling, single point]"
19,Cc1ccc(C(=O)Nc2c(-c3cccs3)c(=O)c3ccccc3n2C)cc1,"inconclusive: 14.6 µM [falling, partial curve]"
20,NC(=O)c1ccsc1NC(=O)CCc1ccccc1,"inconclusive: 23.1 µM [activator, single point]"
21,c1ccc(-n2nnc3c(N4CCOCC4)ncnc32)cc1,"inconclusive: 16.4 µM [falling, single point]"
22,COc1ccccc1-c1nnc(SCC(=O)N2CCOCC2)o1,"inconclusive: 9.2 µM [activator, partial curve]"
